Laboratory results as given in the supplement of paper PMC3334620.
Whole data set: some 33,000 sequences, median “E-score (-0.5 to 0.5)” near -0.0014, cut for the highest 2% near 0.25. This is one part of the list.

These sequences were tested against T1, Cad1 (UniProt P24813) (assay: PBM E-score (8-mer binding enrichment) (E-score (-0.5 to 0.5)); higher = stronger / more preferred TF binding). Conditions: protein concentration: 100 nM; construct: GST-full length.
T1 sequence: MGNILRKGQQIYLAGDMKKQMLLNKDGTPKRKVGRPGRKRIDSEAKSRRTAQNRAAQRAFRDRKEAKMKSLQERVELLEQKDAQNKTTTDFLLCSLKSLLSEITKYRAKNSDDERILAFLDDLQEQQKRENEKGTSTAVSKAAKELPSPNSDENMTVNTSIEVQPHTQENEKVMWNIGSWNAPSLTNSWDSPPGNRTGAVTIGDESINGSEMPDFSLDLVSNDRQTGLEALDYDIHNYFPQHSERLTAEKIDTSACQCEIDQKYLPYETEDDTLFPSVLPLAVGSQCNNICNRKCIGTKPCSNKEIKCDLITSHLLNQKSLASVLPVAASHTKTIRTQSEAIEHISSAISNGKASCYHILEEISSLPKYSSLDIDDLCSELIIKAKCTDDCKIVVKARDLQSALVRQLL
Protocol: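 Universal 'all 10-mer' protein binding microarrays (Agilent AMADID 015681) probed with GST-tagged S. cerevisiae TFs (full-length or DBD) made by in vitro transcription/translation (PURExpress), about 100-200 nM. Bound TF was detected with fluorescent anti-GST. Each ungapped 8-mer (which stands for itself and its reverse complement) is scored by the PBM enrichment score (E-score), a modified Wilcoxon-Mann-Whitney statistic from -0.5 to +0.5, computed with the Universal PBM Analysis Suite. Scale: above 0.35 generally sequence-specific binding.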

Sequence	PBM E-score
GAACGACA	0.0743
GGCAGGAC	-0.024
CATAATGC	-0.0245
CACTGTAC	-0.157
ACGTTGCT	0.0846
GCACCGAC	0.0884
GATTTACA	0.139
AGTTTTTG	0.0939
AGATAACG	0.189
GGATTAGA	-0.00582
CACTACGA	-0.00465
GAAGCTGA	0.152
CATTTAAA	0.0964
CCACCGGG	-0.311
CCGGTTTA	-0.0764
AGGCCAGA	-0.0194
GTCATAAC	0.0715
CATCACTA	0.0442
AAAAGTGC	-0.0275
GAATCATA	0.0335
CTAGACGC	-0.138
CTAAAGAG	-0.136
AACCCGCG	0.154
CATAGCAC	-0.0299
AACATGTG	0.207

Copied from the list.
PBM E-score with CATAGCAC is entered as -0.0299
PBM E-score with GAACGACA is entered as 0.0743
PBM E-score with ACGTTGCT is entered as 0.0846

Additional results

Sequence	PBM E-score
CGGTGACA	-0.0436
CCCCGACG	-0.0231
CTAAACAG	-0.00653
CCGTACCA	0.134
ATTACTTA	0.237
CTTATTTC	0.304
CGTTACCA	0.0326
CGCCTTAC	-0.024
GAAAAGAC	0.114
TCTGCTCA	0.0798
CAAAAGGG	-0.144
GAAAAAAA	0.215
CCGGTTTC	0.0734
AGGCCCTG	-0.124
CTAAGACA	0.0189
GACAAATC	0.306
GACATTCA	0.0718
AGCAGTCC	-0.195
CGCGCTGA	0.219
ATAGATAC	0.0239
CCGTATGA	0.0131
GTACACGA	0.0697
TTACTGAA	0.209
AAGCTCTA	0.0386
ATCACGGG	-0.16

Sequence	PBM E-score
CGACGGCA	-0.158
GGTAATTA	0.186
GACATGAC	-0.175
CCGAATTC	0.181
GGAAGTAA	-6e-05
CGCTGGAA	-0.0381
GCGTGACA	0.1
CTGCTATA	0.048
CCTAAGCA	0.0423
CGGTTTTA	-0.00607
ACCATGTC	-0.056
CATTCCCC	-0.0209
CAATCGAG	-0.0756
GCGCTGCC	-0.124
GAAATGCA	0.0836
CCCAATTC	0.211
AGTAAGGA	-0.0549
TAACCCAA	0.00706
CGTCGAGC	0.0029
TCATGGCA	0.0627
GGCAGGGA	-0.0316
ACGCGACC	0.0178
CAATCGCG	0.101
TATGCGCA	0.0953
AAGGTAAG	-0.104

Sequence	PBM E-score
GTGACTTA	0.1
ACGCCTGA	0.173
CATTTGGC	0.0605
CGCAAGCC	0.0392
ACTTTCCT	-0.143
GACGGCAA	0.153
ATGACTTC	0.00264
GACCGAAC	-0.00847
ATGAGACA	0.0645
GCATCGCC	-0.0897
AGTGCGTG	-0.00204
ACACGTCG	-0.121
GAGTGGCC	-0.088
AATGGTTC	0.149
GGCAAAGA	0.0959
CCTGCGTA	-0.165
AACTGTTA	0.0596
AAGGTTAT	-0.111
AACCGAGT	-0.0245
CAAAGCTG	0.13
ATATGAGC	0.123
GGCATACC	-0.103
CAATAAGC	0.0179
AGTAGTAC	0.235
CACTACTA	0.0856

Sequence	PBM E-score
ATTCGCAA	0.156
AAAGGCAA	-0.0149
CACCCATG	-0.0677
GTATCCCA	-0.128
GGGGTCTA	-0.0356
GACCTTGC	-0.172
GCATAGCA	0.107
AGGTGCAC	0.0804
AAGTTTAT	0.178
AATATAGA	0.168
AAACTCCT	-0.311
ACAGAAAA	0.281
CCGCAAGA	0.147
AGATCATA	0.162
CCTCATCA	0.019
TCGATTCA	0.0497
CCCACGCC	-0.271
ATACGAAT	0.107
GTTACAGA	-0.237
ATCTCTCG	-0.0747
GCAGTTAC	0.128
CATTATAG	-0.0283
GACGCCTC	-0.0937
GGGAATTA	0.173
CACTCTAA	0.019

Sequence	PBM E-score
ACCGTTAC	0.0129
AAGAAGGC	-0.191
CGTAGCTC	0.109
CATTTAAG	-0.0887
GTAAAGAA	0.135
CGAATGAC	0.169
GTTTTGGA	-0.025
CTCGACAA	-0.0434
CAATATGG	-0.045
AACCTACG	-0.119
ATCGATAA	0.162
ACCCGTGG	-0.231
CGGGCAAA	-0.0196
AGGCTTTA	-0.188
CAGAGCCA	-0.344
ATCCTTAC	0.101
ATAGATGA	-0.0472
ACACGGAA	0.0916
GGTTTCCA	-0.155
CGTTAGCA	0.083
AGCATCGG	0.0523
AGTTAGTA	0.0725
ACTGCTAC	-0.026
AGCCGGCT	-0.0559
AGGATCTG	-0.145

Sequence	PBM E-score
CTTAGCCC	-0.144
GACGAAAA	0.297
CTTAGCAC	0.0502
GCTATAAA	-0.167
GTTGTTAA	0.259
GCTAAGAA	-0.119
ACCATACA	-0.129
CGTAAGAG	0.0766
ACGTACCG	0.00529
CGTTCGTA	0.143
GAATGATC	-0.0987
AGGTACCT	-0.0887
CCTGAATC	-0.0989
TATGGAGA	-0.0855
CGCGACCG	0.0372
GAGAGCGC	-0.0566
AAGCTTTC	0.236
CAAGCCGG	0.172
TCGACTCA	0.152
ACGCCTAT	-0.161
AAGTTTCT	0.0467
ATCCGTCA	-0.0299
